Measured values: doi:10.1101/2020.08.25.267237
Positions count from the first letter of the chain named. Results are given in words; binding and its absence hold for the method and conditions named. In cells and extracts the contact can be indirect. Some binding calls cover weakened binding; strength is not graded here. Where a sequence is shown, tags or fusion partners need not be part of it. One block for each binder: values may come before it.

Assays:
[1] = target: T1, FLAG-CTCF (mouse cDNA) expressed in 293FT cells (mouse) (UniProt Q61164); experiment: co-IP
T1 sequence: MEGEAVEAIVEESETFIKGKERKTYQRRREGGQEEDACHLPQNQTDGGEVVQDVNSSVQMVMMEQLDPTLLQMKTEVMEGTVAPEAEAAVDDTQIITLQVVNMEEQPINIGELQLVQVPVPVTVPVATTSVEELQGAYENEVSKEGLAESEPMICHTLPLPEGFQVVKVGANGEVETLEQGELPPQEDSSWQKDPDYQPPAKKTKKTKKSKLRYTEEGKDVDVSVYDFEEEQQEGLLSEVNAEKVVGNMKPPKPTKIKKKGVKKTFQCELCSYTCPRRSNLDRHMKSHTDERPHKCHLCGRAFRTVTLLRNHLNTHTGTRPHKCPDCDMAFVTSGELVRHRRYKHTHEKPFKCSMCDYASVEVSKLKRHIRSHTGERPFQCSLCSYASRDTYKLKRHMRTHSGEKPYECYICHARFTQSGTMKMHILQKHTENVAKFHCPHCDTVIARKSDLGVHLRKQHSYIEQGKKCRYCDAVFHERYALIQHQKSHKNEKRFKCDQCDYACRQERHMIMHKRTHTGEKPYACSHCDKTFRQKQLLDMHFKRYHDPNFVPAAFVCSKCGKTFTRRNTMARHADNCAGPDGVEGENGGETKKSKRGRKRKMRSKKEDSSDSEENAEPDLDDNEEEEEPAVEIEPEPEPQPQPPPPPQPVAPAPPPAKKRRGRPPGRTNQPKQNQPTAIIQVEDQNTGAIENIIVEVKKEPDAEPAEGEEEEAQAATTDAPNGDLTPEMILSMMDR

[2] = target: T2, FLAG-MAZ (mouse cDNA) expressed in 293FT cells (mouse) (UniProt P56671); experiment: co-IP
T2 sequence: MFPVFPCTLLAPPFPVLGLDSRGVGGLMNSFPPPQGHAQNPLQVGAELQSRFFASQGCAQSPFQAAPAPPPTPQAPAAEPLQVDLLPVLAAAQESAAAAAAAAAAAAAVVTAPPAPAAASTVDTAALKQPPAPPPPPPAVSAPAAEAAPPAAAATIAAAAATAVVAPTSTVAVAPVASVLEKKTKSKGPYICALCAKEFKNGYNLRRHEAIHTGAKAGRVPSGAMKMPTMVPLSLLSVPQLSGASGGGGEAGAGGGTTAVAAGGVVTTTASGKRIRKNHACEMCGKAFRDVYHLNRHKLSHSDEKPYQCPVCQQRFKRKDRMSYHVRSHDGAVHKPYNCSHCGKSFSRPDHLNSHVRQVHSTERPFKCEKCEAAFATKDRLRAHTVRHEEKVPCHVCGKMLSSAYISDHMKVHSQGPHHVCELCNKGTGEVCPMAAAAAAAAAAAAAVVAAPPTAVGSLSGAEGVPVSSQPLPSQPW

binding [1]: binds | binding [2]: binds
B1: RAD21, cohesin subunit, endogenous in 293FT cells (protein, UniProt O60216 1-631)
chain: MFYAHFVLSKRGPLAKIWLAAHWDKKLTKAHVFECNLESSVESIISPKVKMALRTSGHLLLGVVRIYHRKAKYLLADCNEAFIKIKMAFRPGVVDLPEENREAAYNAITLPEEFHDFDQPLPDLDDIDVAQQFSLNQSRVEEITMREEVGNISILQENDFGDFGMDDREIMREGSAFEDDDMLVSTTTSNLLLESEQSTSNLNEKINHLEYEDQYKDDNFGEGNDGGILDDKLISNNDGGIFDDPPALSEAGVMLPEQPAHDDMDEDDNVSMGGPDSPDSVDPVEPMPTMTDQTTLVPNEEEAFALEPIDITVKETKAKRKRKLIVDSVKELDSKTIRAQLSDYSDIVTTLDLAPPTKKLMMWKETGGVEKLFSLPAQPLWNNRLLKLFTRCLTPLVPEDLRKRRKGGEADNLDEFLKEFENPEVPREDQQQQHQQRDVIDEPIIEEPSRLQESVMEASRTNIDESAMPPPPPQGVKRKAGQIDPEPVMPPQQVEQMEIPPVELPPEEPPNICQLIPELELLPEKEKEKEKEKEDDEEEEDEDASGGDQDQEERRWNKRTQQMLHGLQRALAKTGAESISLLELCRNTNRKQAAAKFYSFLVLKKQQAIELTQEEPYSDIIATPGPRFHII

binding [1]: no binding
B2: MAZ, endogenous in 293FT cells (protein, UniProt P56270 1-477)
chain: T2 sequence with V110A, T111A, A139P, A152S, V179A, S245G, T257A, T258A, V448A
